Reference: the supplement of paper PMC10849652
The list shows a part of the results.

Sequences of proteins named here, by UniProt entry; tags and fusion partners are left off. A change or cut given only in a name is not applied to a line headed by its entry.
UniProt Q9NRR8: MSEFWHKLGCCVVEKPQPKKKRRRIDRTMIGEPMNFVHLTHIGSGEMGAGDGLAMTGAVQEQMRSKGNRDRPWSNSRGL
UniProt Q5SW79: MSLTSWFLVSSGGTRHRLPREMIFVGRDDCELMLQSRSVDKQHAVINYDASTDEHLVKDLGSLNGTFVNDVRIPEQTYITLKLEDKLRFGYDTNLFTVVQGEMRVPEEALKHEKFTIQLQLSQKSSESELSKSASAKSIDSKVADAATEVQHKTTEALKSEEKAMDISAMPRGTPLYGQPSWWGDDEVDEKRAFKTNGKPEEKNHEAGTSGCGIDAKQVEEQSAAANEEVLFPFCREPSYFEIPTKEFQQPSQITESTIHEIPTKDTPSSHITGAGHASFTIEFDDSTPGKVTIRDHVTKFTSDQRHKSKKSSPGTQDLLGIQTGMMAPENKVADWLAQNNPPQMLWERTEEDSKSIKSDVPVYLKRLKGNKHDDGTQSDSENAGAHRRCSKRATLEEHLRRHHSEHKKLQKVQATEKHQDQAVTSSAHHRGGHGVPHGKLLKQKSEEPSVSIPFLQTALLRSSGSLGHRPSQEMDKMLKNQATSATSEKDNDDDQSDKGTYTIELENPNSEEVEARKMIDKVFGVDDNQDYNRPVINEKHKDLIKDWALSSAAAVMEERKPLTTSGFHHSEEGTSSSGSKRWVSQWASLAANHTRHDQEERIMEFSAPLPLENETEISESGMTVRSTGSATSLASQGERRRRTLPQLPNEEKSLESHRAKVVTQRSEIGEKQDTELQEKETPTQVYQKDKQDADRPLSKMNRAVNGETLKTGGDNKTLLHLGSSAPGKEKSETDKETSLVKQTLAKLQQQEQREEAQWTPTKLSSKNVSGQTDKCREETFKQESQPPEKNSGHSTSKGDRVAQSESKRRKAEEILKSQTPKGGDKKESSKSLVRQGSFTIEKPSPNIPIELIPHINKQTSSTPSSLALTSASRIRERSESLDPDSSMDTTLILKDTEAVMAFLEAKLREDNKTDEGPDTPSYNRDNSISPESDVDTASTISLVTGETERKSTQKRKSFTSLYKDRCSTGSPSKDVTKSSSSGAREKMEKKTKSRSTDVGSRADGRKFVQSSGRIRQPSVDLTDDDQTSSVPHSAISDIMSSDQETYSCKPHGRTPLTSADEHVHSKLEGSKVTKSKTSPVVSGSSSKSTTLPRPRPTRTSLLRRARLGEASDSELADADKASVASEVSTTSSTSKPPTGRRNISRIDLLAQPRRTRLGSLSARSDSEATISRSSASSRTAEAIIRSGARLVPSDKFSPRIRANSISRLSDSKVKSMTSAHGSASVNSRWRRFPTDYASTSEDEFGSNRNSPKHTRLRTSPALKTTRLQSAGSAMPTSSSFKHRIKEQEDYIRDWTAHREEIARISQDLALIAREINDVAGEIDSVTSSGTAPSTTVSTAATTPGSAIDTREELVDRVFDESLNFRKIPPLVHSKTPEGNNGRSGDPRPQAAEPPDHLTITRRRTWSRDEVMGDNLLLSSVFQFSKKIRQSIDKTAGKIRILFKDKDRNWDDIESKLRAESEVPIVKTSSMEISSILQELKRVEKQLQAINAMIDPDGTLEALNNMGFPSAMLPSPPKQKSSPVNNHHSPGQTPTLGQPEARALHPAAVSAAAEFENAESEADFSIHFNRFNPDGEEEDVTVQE
UniProt Q6DT37: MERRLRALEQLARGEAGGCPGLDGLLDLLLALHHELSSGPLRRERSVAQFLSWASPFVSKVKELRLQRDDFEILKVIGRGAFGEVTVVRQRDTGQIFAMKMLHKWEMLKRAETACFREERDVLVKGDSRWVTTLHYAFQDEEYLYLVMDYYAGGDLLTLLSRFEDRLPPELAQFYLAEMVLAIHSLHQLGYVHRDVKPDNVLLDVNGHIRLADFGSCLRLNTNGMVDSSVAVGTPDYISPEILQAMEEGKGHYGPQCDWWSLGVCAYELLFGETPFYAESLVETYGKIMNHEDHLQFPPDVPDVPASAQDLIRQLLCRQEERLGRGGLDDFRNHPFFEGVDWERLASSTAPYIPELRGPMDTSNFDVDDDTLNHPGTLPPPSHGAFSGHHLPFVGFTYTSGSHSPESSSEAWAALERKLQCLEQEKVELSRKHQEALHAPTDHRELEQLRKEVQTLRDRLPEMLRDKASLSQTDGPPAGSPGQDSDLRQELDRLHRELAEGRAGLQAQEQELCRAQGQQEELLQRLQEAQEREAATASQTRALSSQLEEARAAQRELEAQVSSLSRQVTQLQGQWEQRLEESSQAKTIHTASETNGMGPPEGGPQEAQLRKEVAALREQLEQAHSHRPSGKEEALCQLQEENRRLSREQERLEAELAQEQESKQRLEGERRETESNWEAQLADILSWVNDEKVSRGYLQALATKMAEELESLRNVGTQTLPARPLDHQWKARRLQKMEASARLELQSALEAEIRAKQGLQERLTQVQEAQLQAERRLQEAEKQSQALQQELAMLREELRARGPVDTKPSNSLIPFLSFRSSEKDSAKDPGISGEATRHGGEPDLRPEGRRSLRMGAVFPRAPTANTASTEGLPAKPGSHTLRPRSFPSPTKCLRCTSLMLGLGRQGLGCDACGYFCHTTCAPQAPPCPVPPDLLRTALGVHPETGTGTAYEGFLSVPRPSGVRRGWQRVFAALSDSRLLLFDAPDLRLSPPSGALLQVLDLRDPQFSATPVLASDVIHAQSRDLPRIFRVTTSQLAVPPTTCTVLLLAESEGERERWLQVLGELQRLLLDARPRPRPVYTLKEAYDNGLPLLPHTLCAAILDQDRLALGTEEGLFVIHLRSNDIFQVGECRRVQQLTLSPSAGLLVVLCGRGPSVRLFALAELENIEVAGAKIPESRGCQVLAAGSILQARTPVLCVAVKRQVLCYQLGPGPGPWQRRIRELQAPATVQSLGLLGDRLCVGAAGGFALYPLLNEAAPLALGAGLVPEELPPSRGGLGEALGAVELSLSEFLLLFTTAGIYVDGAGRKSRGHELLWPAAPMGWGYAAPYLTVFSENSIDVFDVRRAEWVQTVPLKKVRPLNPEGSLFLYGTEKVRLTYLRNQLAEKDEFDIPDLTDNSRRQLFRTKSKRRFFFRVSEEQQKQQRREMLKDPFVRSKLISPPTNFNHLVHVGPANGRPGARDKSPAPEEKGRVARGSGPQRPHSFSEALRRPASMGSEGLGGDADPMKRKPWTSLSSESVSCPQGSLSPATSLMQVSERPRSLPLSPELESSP
UniProt P07199: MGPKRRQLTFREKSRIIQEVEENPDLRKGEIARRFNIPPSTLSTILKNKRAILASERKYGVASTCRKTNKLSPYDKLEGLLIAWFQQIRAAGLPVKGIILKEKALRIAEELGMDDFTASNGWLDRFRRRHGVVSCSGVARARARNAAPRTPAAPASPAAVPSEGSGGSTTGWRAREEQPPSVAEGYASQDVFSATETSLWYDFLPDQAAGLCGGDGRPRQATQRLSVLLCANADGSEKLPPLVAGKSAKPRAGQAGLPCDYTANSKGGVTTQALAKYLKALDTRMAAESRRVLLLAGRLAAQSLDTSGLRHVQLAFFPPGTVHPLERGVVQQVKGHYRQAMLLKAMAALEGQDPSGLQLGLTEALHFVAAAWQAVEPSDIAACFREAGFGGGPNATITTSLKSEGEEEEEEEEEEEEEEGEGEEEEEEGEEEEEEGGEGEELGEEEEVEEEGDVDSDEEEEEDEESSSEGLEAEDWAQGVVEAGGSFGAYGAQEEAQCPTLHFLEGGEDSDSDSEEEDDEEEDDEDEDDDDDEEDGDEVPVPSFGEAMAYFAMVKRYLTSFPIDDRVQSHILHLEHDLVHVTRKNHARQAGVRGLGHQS
UniProt O15519, whole entry, looked up: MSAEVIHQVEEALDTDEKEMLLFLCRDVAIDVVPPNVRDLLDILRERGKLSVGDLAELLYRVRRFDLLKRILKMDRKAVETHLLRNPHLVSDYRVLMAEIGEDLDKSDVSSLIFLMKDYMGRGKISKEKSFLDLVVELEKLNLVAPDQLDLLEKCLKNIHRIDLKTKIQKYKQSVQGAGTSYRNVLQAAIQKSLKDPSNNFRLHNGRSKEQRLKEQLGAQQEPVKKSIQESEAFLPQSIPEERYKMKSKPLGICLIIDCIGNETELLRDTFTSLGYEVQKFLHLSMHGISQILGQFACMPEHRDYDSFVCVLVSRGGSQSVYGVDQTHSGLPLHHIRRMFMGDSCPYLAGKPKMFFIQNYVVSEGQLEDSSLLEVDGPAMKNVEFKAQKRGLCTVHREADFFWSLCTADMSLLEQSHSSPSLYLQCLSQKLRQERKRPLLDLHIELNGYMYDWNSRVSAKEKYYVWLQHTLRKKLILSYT
UniProt O60308: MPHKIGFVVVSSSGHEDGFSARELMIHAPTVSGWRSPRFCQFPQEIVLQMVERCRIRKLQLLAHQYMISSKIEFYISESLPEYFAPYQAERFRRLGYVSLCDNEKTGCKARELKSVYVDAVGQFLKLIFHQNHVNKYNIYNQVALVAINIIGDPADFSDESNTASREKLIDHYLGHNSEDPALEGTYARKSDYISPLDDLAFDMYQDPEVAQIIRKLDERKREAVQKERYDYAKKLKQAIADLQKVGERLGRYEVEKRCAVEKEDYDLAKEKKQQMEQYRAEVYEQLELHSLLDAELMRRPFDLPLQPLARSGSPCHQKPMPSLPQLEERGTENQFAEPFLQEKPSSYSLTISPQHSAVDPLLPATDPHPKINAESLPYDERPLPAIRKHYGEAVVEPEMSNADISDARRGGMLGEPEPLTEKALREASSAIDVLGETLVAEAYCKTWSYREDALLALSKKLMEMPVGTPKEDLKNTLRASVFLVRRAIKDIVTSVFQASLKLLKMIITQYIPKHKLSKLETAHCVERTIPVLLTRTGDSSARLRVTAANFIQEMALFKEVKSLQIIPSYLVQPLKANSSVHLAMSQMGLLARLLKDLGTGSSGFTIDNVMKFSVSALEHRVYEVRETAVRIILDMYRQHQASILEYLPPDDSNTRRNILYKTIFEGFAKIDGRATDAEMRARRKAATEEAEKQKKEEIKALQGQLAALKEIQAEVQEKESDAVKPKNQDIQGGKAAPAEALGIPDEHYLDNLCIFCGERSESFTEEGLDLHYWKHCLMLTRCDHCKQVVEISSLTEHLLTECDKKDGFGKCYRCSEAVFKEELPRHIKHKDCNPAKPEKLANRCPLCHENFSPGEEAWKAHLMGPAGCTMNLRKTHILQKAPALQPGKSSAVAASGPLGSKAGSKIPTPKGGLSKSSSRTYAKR
UniProt Q6ZU80: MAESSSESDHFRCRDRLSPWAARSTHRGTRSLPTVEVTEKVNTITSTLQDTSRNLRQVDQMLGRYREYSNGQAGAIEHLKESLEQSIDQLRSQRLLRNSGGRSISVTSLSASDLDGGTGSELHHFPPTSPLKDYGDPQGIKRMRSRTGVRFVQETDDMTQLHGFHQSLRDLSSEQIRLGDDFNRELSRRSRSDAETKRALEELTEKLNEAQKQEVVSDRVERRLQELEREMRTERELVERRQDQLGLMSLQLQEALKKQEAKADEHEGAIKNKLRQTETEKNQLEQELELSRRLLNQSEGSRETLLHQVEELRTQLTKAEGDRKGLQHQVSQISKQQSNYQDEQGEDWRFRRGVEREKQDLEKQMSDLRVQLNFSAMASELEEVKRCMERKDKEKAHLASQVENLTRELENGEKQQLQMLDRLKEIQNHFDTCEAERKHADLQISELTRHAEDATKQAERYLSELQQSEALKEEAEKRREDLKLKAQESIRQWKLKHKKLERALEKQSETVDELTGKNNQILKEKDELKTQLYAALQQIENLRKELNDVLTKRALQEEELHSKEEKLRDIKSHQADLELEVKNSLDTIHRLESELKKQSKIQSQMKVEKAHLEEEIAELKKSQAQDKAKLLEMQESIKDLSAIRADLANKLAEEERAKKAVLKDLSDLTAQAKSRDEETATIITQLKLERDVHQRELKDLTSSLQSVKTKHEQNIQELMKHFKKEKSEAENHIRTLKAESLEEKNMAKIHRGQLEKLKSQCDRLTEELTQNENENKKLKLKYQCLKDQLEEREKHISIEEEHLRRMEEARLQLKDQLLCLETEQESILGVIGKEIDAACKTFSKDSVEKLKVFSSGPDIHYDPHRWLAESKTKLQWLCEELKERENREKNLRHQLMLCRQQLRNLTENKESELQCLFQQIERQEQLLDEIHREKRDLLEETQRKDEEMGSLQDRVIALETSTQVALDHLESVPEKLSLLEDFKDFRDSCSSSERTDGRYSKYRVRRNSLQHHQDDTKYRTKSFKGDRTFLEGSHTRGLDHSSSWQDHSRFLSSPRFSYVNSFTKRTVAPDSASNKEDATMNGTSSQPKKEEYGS
UniProt Q9BUX1: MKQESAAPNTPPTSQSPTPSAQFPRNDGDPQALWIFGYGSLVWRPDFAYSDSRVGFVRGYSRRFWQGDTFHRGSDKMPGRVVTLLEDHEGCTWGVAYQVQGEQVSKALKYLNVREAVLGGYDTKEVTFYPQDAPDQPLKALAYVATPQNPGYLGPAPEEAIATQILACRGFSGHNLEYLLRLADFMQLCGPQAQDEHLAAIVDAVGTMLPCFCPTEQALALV

Key:
Test in all cases: log2 fold change, soluble protein after heating vs DMSO (PISA); higher = thermal stabilisation; K562 lysate, 10 uM; active = over 0.2 and 3.5 SD of the protein, either way, in both replicates (recomputed)
[1] = compound: C1=CC2=NC=CN=C2C=C1/C=C/3\C(=O)NC(=O)S3
Outline: (§1)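 Pellets of K562 cells were dounce-homogenised in PBS pH 7.4 with 1 mM MgCl2, and the crude extract was held at 1 mg/mL protein for a 30 min treatment with 10 μM compound. Aliquots were heated for 3 min over 48°C-58°C and pooled before NP-40 was added to 0.5% at 4°C. The supernatant from 21,000xg for 90 min was quantified by TMTpro 16plex LC-MS/MS with channel sums equalised. Values are reported from duplicates as log-two fold change in thermal stability relative to solvent controls.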

[2] = compound: C1CCN(C1)C(=O)NC2=CC=CC(=C2)NC3=NC=C(C(=N3)NCCC4=CN=CN4)Br
Outline: as §1

[3] = compound: C1CN(CCC1(CC2=CC=C(C=C2)Cl)N)C3=NC=NC4=C3C=CN4
Outline: as §1

ibrutinib = compound: C=CC(=O)N1CCC[C@@H](n2nc(-c3ccc(Oc4ccccc4)cc3)c3c(N)ncnc32)C1 [ibrutinib]
Outline: as §1

[4] = compound: CC(=O)c1cnc2ccc(-c3cc(Cl)c(O)c(Cl)c3)nc2c1N[C@H]1CC[C@H](CN(C)C)CC1
Outline: as §1

[5] = compound: CC1=CC=C(C=C1)SC2=C3C=C(SC3=CN=C2)C(=O)N
Outline: as §1

[6] = compound: CC1=C(C=C(C=C1)NC(=O)C2=CC(=CC=C2)C(C)(C)C#N)NC3=CC4=C(C=C3)N=CN(C4=O)C
Outline: as §1

[7] = compound: C1=CC=C(C=C1)C2=NC(=C(N2)C3=CC=NC=C3)C4=CC(=C(C=C4)Cl)O
Outline: as §1

IRAK-1-4 Inhibitor I = compound: C1COCCN1CCN2C3=CC=CC=C3N=C2NC(=O)C4=CC(=CC=C4)[N+](=O)[O-] [IRAK-1-4 Inhibitor I]
Outline: as §1

ralimetinib = compound: CC(C)(C)Cn1c(N)nc2ccc(-c3[nH]c(C(C)(C)C)nc3-c3ccc(F)cc3)nc21 [ralimetinib]
Outline: as §1

[8] = compound: CC(C)(O)CC(=O)NCCn1ccc2ncnc(Nc3ccc(Oc4cccc(C(F)(F)F)c4)c(Cl)c3)c21
Outline: as §1

[9] = compound: CC1=C(C=C(C=C1)NC(=O)C2=CC(=CC=C2)N(C)C)NC(=O)C3=CC=C(C=C3)O
Outline: as §1

[10] = compound: C/C(=N\NC(=O)C1=CC(=CC=C1)S(=O)(=O)N2CCOCC2)/C3=C(C=CC(=C3)Cl)O
Outline: as §1

[11] = compound: C1=CC2=C(C=CC(=C2)/C=C\3/C(=O)NC(=NCC4=CC=CS4)S3)N=C1
Outline: as §1

[12] = compound: C1=CC=C2C(=C1)C3=NNC4=CC=CC(=C43)C2=O
Outline: as §1

[13] = compound: CC1=C(C2=C(C=C1)C(=O)C3=CC=CC=C3N2CCCN)C
Outline: as §1

[14] = compound: CC1=C(C(CC(=O)N1)C2=CC=C(C=C2)C(F)(F)F)C(=O)NC3=C(C=C4C(=C3)C=NN4)F
Outline: as §1

erlotinib = compound: C#Cc1cccc(Nc2ncnc3cc(OCCOC)c(OCCOC)cc23)c1 [erlotinib]
Outline: as §1

[15] = compound: C1=CC(=CC=C1C2=NC3=C(N2)C=C(C=C3)C(=O)N)OC4=CC=C(C=C4)Cl
Outline: as §1

[16] = compound: CC(C)C1=C2N=C(C=C(N2N=C1)NCC3=CC=CC=C3)NCCCCCCN
Outline: as §1

Measured: log2 fold change

CFL1 (UniProt E9PP50)
inactive: [1] -0.082 | [2] -0.38 | [3] -0.317 | ibrutinib 0.175 | [4] 0.04 | [5] 0.132

CDNF (UniProt Q49AH0)
inactive: [2] 0.026 | [3] -0.028 | [4] -0.187 | [6] 0 | [5] 0.114

CEBPG (UniProt P53567)
inactive: [1] -0.019 | [7] -0.067 | IRAK-1-4 Inhibitor I 0.016 | ibrutinib 0.253 | [4] 0.098 | ralimetinib 0.215 | [8] 0.02 | [6] 0.196 | [9] -0.074 | [5] -0.013

CDKL5 (UniProt O76039)
inactive: [10] -0.216 | [11] -0.08 | [12] 0.339 | [2] 0.423 | [3] 0.085 | [4] 0.088 | [13] -0.351 | [6] 0.111 | [5] -0.019

CDC42SE1 (UniProt Q9NRR8)
inactive: [1] 0.032 | ibrutinib 0.019 | [4] 0.094 | [14] -0.33 | [6] 0.013 | [5] -0.115

CENPT (UniProt Q96BT3)
inactive: erlotinib -0.087 | [15] -0.246 | [16] 0.006

CDAN1 (UniProt H3BPZ6)
inactive: [6] -0.172

CENPX (UniProt A8MT69)
inactive: [7] -0.001 | IRAK-1-4 Inhibitor I -0.173 | ralimetinib -0.014 | [8] 0.161 | [6] -0.062 | [9] -0.206

CDC42, A0A494C1M1
inactive: [4] -0.01 | [14] -0.029 | [5] 0.118

CD84 (UniProt Q9UIB8)
inactive: [1] -0.065 | ibrutinib -0.042

CEP170 isoform 2 (UniProt Q5SW79)
inactive: [2] -0.383 | [3] -0.111 | [13] -0.206

CDC42BPG (UniProt Q6DT37)
inactive: [7] 0.159 | IRAK-1-4 Inhibitor I 0.156 | [4] -0.153 | ralimetinib -0.035 | [8] -0.259 | [14] 0.058 | [13] -0.015 | [6] -0.088 | [9] -0.149 | [5] -0.119

CENPB (UniProt P07199)
inactive: [2] -0.105 | [3] -0.142

CELSR2 (UniProt Q9HCU4)
inactive: erlotinib -0.2 | [15] -0.174 | [16] -0.211

CDC37 (UniProt K7EL68)
inactive: [10] 0.01 | [11] -0.094 | [1] 0.084 | [12] -0.049 | ibrutinib -0.179 | [6] 0.072

CDKN3 (UniProt Q16667)
inactive: [1] -0.045 | [2] 0.093 | [3] 0.04 | ibrutinib 0.116

CEP170B (UniProt Q9Y4F5)
inactive: [10] 0.055 | [11] -0.038 | [12] -0.098 | [2] -0.031 | [3] -0.067 | [4] 0.122 | [13] -0.003 | [6] 0.056 | [5] 0.23

CFLAR (UniProt O15519)
inactive: [10] 0.466 | [11] -0.138 | [7] 0.007 | [12] 0.04 | [2] -0.074 | [3] 0.079 | IRAK-1-4 Inhibitor I -0.032 | ralimetinib -0.025 | [8] 0.112 | [13] -0.143 | [6] 0.026 | [9] -0.058

CEP104 (UniProt O60308)
inactive: [7] -0.069 | IRAK-1-4 Inhibitor I -0.015 | ralimetinib -0.054 | [8] 0.015 | [9] -0.201

CEP78 isoform 2 (UniProt Q5JTW2)
inactive: erlotinib 0.204 | [15] -0.062 | [16] -0.074 | [13] -0.116 | [6] -0.012

CFL1 (UniProt E9PQB7)
inactive: [6] 0.337

CDC42EP2 (UniProt O14613)
inactive: [10] -0.057 | [11] 0.06 | [7] -0.215 | [12] 0.06 | IRAK-1-4 Inhibitor I -0.315 | ralimetinib -0.008 | [8] 0.07 | [6] 0.116 | [9] -0.029

CEP128 (UniProt Q6ZU80)
inactive: [10] -0.069 | [11] 0 | [1] -0.234 | [7] 0.236 | [12] -0.102 | [2] -0.138 | [3] -0.015 | IRAK-1-4 Inhibitor I -0.212 | ibrutinib 0.166 | ralimetinib -0.06 | [8] -0.001 | [13] 0.078 | [9] -0.03

CEP162 (UniProt Q5TB80)
inactive: [6] 0.042

CENPO (UniProt Q9BU64)
inactive: erlotinib -0.147 | [15] -0.062 | [16] -0.06 | [14] 0

Two entries picked at random from those above:
CENPO (UniProt Q9BU64)
inactive: erlotinib -0.147 | [15] -0.062 | [16] -0.06 | [14] 0

CEP128 (UniProt Q6ZU80)
inactive: [10] -0.069 | [11] 0 | [1] -0.234 | [7] 0.236 | [12] -0.102 | [2] -0.138 | [3] -0.015 | IRAK-1-4 Inhibitor I -0.212 | ibrutinib 0.166 | ralimetinib -0.06 | [8] -0.001 | [13] 0.078 | [9] -0.03

(listing goes on)

CEP68 (UniProt Q76N32)
inactive: erlotinib 0.008 | [15] 0.108 | [2] 0.135 | [3] 0.035 | [16] 0.14 | [13] -0.038

CDC14A isoform 2 (UniProt Q9UNH5)
inactive: [7] 0.082 | IRAK-1-4 Inhibitor I -0.102 | [4] 0.107 | ralimetinib -0.336 | [8] -0.135 | [14] -0.04 | [6] 0.145 | [9] 0.219 | [5] 0.006

CDCA4 (UniProt Q9BXL8)
inactive: [10] -0.121 | [11] 0.015 | [7] 0.165 | [12] 0 | IRAK-1-4 Inhibitor I 0.072 | ralimetinib -0.044 | [8] -0.197 | [13] -0.02 | [9] -0.118

CD9 (UniProt P21926)
inactive: [10] 0.028 | [11] 0.018 | [12] 0.067 | [2] -0.227 | [3] -0.206 | [13] -0.067

CDPF1 (UniProt Q6NVV7)
inactive: [7] -0.097 | IRAK-1-4 Inhibitor I 0.001 | ralimetinib -0.111 | [8] -0.036 | [6] 0.011 | [9] 0.214

CHAC1 (UniProt Q9BUX1)
inactive: [10] 0.134 | [11] -0.084 | [1] 0.969 | [12] 0.031 | ibrutinib -0.207 | [13] 0.152 | [6] 0.018
